Assay results reported in patent US12692283B2, “Lignan derivative, preparation method therefor and use thereof” (SHANGHAI INSTITUTE OF MATERIA MEDICA, CHINESE ACADEMY OF …, priority 2021, dated 2026).
For at least one compound, name, drawing or mass did not settle the structure.

Legend:
Assay type in all cases: in vivo, mouse
[1] = test system: osteoarthritis model mice (DMM); assay: Efficacy in osteoarthritis model mice (DMM, medial meniscus ligament resection)
[2] = test system: bleomycin-induced IPF mice; assay: Efficacy in mice with bleomycin-induced idiopathic pulmonary fibrosis (IPF); conditions: oral 10 or 30 mg/kg/day for 14 days
[3] = test system: APP/PS1 transgenic AD model mice; assay: Efficacy in APP/PS1 transgenic Alzheimer's disease mice (Morris water maze); conditions: oral 30 mg/kg/day for 90 days, versus solvent-treated transgenic mice
[4] = 2 mM 50 μL/mouse every other day for 8 weeks

## COc1cc(C[C@@]2(C)C(=O)OC[C@@H]2Cc2ccc(OC)c(OC)c2)ccc1O [Compound A4-1a, (3R,4R)-4-(3,4-dimethoxybenzyl)-3-(4-hydroxy-3-methoxybenzyl)-3-methyldihydrofuran-2 (3H)-one]
[1]; [4]
  articular cartilage surface morphology (safranin O-fast green): restore the smoothness and integrity of the damaged articular cartilage surface
  pathological score of mouse joint tissue (OA score): reduce the pathological score of mouse joint tissue
[1]; 2 mM 50 μL/mouse every other day for 8 weeks, immunohistochemistry
  expression of the aging marker p16 in cartilage: reduce the expression of the aging marker p16 in cartilage
[1]; 2 mM 50 μL/mouse injected at knee joint every other day for 8 weeks, hot plate 52° C.
  reaction time in the hot plate test: significantly reduce the reaction time
[2]
  IL-6 gene level (SASP) in lung tissue: reduce the level
  aging marker p16 gene level in lung tissue: reduce the level of aging marker p16
  body weight of IPF mice: significantly slow down the weight loss
  degree of fibrosis in lung tissue sections (Masson staining score): reduce the degree of fibrosis in lung tissue sections
  survival rate of IPF mice: improve the survival rate
[3]
  latency period in Morris water maze: significantly shorter
  number of platform crossings in Morris water maze: significantly more
